Experimental data from US20040115734A1.
Results are given in words; binding and its absence hold for the method and conditions named. Binding seen in cells or lysates may run through a third protein. Some results given as binding are weak or reduced against the parent protein; the word gives no strength.

How the values were obtained:
[1] = target: T1, endogenous telencephalin (TLN) from mouse brain extracts (mouse) (UniProt Q60625); assay: GST pull-down of endogenous TLN from Triton X-100 brain extracts
T1 sequence (looked up): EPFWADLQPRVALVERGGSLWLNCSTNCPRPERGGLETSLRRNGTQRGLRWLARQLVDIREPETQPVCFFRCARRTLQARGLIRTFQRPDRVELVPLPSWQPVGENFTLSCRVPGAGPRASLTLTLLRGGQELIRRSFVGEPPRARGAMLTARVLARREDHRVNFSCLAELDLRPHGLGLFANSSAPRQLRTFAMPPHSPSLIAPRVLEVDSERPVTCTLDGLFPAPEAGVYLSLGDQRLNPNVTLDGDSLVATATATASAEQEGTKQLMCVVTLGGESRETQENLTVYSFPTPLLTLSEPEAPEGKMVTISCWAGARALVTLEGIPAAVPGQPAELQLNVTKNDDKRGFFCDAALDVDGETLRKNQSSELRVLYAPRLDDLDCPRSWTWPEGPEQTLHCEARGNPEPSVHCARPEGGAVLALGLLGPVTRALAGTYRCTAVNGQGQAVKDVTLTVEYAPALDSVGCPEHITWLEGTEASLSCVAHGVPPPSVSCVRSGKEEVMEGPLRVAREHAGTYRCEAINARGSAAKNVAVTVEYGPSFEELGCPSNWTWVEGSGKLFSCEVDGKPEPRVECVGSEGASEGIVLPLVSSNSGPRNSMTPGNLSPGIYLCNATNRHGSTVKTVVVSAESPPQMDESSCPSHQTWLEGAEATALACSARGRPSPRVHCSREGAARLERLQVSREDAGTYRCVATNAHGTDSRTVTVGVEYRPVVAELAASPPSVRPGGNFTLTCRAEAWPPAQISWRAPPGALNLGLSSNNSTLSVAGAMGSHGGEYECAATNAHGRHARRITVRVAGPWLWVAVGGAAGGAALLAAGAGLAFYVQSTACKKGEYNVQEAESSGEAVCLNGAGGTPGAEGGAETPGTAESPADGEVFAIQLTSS

[2] = target: T1, endogenous telencephalin (TLN) from mouse brain extracts (mouse); assay: GST pull-down from Triton-X100 brain extracts, western blot with B36.1

How did the binding [1] turn out when “GST-PS1 N-terminal fragment with the first but without the second transmembrane region (name not printed) (from UniProt P08515 1-218; P49768 1-132)” was run?
The binding was “binds”.

And the binding [2]?
Its binding is “binds”.

“GST-PS1/1-163N (from UniProt P08515 1-218; P49768 1-163)” was tested. Which binding [1] did it give?
The binding was “binds”.

And the binding [2]?
Its binding is “binds”.
